A short description of the assay: Binding affinity against delta opioid receptor […]. Set-up: species or system Mus musculus.

SMILES strings stand for the structures.

As a reminder, the Ki is the equilibrium dissociation constant of an inhibitor or competing ligand from its target. Low readings indicate higher affinity, high ones lower affinity. `CN1CC[C@]23c4c5ccc(O)c4O[C@H]2[C@@H](O)C=C[C@H]3[C@H]1C5` [MORPHINE] had a Ki of 90 nM.
